Assay results from patent US20230348630A1.
These are yes or no findings as the source states them, for the method shown. Some entries that bind do so weakly or less than the wild type.

Protein sequences, listed by entry. Tags and fused reporters are not part of them. Lines headed by an entry give the natural chain unless they say otherwise; changes in a name come on top.
UniProt P04234: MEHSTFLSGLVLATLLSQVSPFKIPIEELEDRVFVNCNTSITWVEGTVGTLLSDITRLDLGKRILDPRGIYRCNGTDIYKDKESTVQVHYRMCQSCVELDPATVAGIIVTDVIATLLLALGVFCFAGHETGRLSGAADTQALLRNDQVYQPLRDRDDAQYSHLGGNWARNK
UniProt Q02223: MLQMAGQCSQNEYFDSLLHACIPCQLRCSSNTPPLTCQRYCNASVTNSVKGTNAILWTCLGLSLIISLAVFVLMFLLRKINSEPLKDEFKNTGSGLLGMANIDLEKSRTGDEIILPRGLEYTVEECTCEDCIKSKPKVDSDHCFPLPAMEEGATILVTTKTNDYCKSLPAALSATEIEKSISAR

Key:
[1] = biological target: CD3 on Jurkat cells (UniProt P04234); assay: flow cytometry on Jurkat cells
[2] = biological target: BCMA-his protein (Cat #: BCA-H522y, ACRO) (human) (UniProt Q02223); assay: ELISA, coated BCMA protein
[3] = biological target: BCMA-his protein (Cat #: BCA-H522y, ACRO) (human) (UniProt Q02223); assay: SPR (BIAcore 8K)

binding [1] | binding [2] | binding [3] | Binder
binds |  |  | anti-CD3D&E antibody D1E9, full-length human IgG1 (L234A/L235A/N297A)/kappa (antibody, V domains shown) VH: EVQLVESGGGLVQPGRSLRLSCAASGFTFDDFAMHWVRQAPGKGLEWVSGITWNSGSVGYADSVKGRFTISRDNAKKSLYLQMNSLRAEDTALYYCAKDRSGYGHYYYGMDVWGQGTTVTVAS VL: EIVMTQSPATLSVSPGERATLSCRASTSVSHNVAWYQQKPGQAPRLLIYGASTKVTGIPARFSGSGSGTEFTLTISSLQSEDFAVYYCQHYINWPLTFGGGTKVEIKR
binds |  |  | anti-CD3D&E antibody D12A4, full-length human IgG1 (L234A/L235A/N297A)/kappa (antibody, V domains shown) VH: EVQLVESGGGLVQPGRSLRLSCAASGFTFGDYAMHWVRQAPGKGLEWVSGISWNHGHIGYADSVKGRFTISRDNAKKSLYLQMNSLRAEDTALYYCAKDNSGYGHYYYGMDVWGQGTTVTVAS VL: EIVMTQSPATLSVSPGERATLSCRASRSVSRNLAWYQQKPGQAPRLLIYGASTKPTGIPARFSGSGSGTEFTLTISSLQSEDFAVYYCQHYTNWPLRFGGGTKVEIKR
 | binds | binds | anti-BCMA antibody A6-3, full-length human IgG1/kappa (antibody, V domains shown) VH: QVQLVQSGAEVKKPGASVKVSCKASGYTFTNHIIHWVRQAPGQGLEWMGYINPYPGYHGYNDKFSGRATMTSDTSTSTVYMELSSLRSEDTAVYYCARDGYYRDQDVLDYWGQGTLVTVSS VL: DIQMTQSPSSLSASVGDRVTITCKASQDISQYLNWYQQKPGKAPKLLIYYTSGLHPGVPSRFSGSGSGTDFTFTISSLEPEDIATYYCQQGYALPWTFGQGTKVEIKR
